A short description of the experiment: qHTS Assay to Find Inhibitors of Chronic Active B-Cell Receptor Signaling. As to conditions: ABC-DLBCL IkBa-CBG/CBR reporter, luminescence ratio (green luciferase fused to IkBa over red control in TMD8 lymphoma cells), 4 h. Summed up:
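TMD8 human ABC-DLBCL cells with doxycycline-inducible IκBα–green luciferase fusion and unfused red luciferase, in 0.5% FBS medium; compounds up to 46 uM, 4 h at 37C. Green/red luminescence ratio, filter-overlap corrected, fitted to concentration-response curves.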

The mark [1] stands for this setting: measured here: CBR red luminescence, cell number.
Where [2] appears, read: measured here: IkBa-CBG green luminescence.

This passage reports AC50 results from PubChem BioAssay AID493014 (National Center for Advancing Translational Sciences (NCATS), 2011).

The AC50 is the concentration giving half of the maximal activity seen.

The list shows a part of the results. These are further read-outs of the screen, such as a control signal, another cell line or another target. No call is given for them. The list favours compounds with an active or inconclusive main result. Words in brackets tell the shape of the fitted curve; partial curves, single points and poor fits give uncertain potencies.

Regarding `CC1CCCC(n2c(=S)[nH]c3ccccc3c2=O)C1C` (stereo unspecified), the AC50 under setting [1] was 31.6 µM [rising, single point]. Consider `O=C(COC(=O)c1c(F)cccc1F)Nc1ccc(N2CCCCC2)cc1`, for which the AC50 under setting [1] is 29.1 µM [rising, single point]. Turning to `O=C(Nc1nnc(-c2cccs2)o1)c1cccc(Oc2ccccc2)c1`, the AC50 by setting is: under setting [1], 22.4 µM [falling, partial curve, poor fit]; under setting [2], 15.8 µM [falling, single point]. Regarding `CCOc1ncccc1C(=O)OCC(=O)c1cc(OC)c(OC)c(OC)c1`, the AC50 under setting [1] was 2.82 µM [rising, partial curve].

With `COc1cc(C(=O)OC(C)c2ccc(F)cc2)ccc1OCC(=O)N1CCOCC1` (stereo unspecified), the AC50 under setting [1] is 23.1 µM [rising, single point].

Turning to `CCCc1cc(-c2ccc3c(c2)COc2c4ccccc4nn2-3)on1`, the AC50 under setting [1] is 3.66 µM [rising, partial curve, poor fit]. The same measure, in the same setting: with `Cc1ccc(Cl)cc1N1CCN(C(=O)C2CCN(S(C)(=O)=O)CC2)CC1` the figure was 5.62 µM [falling, single point]; with `COc1ccc(C(=O)N2CCN(CCNC(=O)C(=O)Nc3ccc(F)cc3)CC2)cc1`, 14.1 µM [falling, partial curve, poor fit]. Still for that read-out and setting: as for `O=C(CN1CCCCC1)Nc1cccc(Cl)c1Cl`, the figure is 29.1 µM [rising, single point]; as for `Cc1cccc(-n2ncc3c(N4CC(C)CC(C)C4)ncnc32)c1` (stereo unspecified), 1.3 µM [rising, single point]; as for `COc1ccc(-n2sc3ccc(F)cc3c2=O)cc1`, 14.6 µM [falling, partial curve]. As to `COc1cc(C(=O)N/N=C(\C)Cc2ccccc2)cc(OC)c1OC`, the AC50 is, setting by setting: under setting [1], 10.3 µM [rising, partial curve]; under setting [2], 7.31 µM [falling, partial curve].

Consider `CC1(C)CC2(CC(c3ccccc3)c3ccc(O)cc3O2)NC(=S)N1` (stereo unspecified), for which the AC50 under setting [1] is 35.5 µM [falling, single point]. The same measure, in the same setting: with `CCCOc1ccc(C(CC(=O)O)NC(=O)Cc2ccccc2)cc1` (stereo unspecified) the figure was 4.47 µM [rising, full curve, poor fit]; with `Cc1cc(O)c(-c2cc(C(=O)Nc3cccnc3)[nH]n2)cc1C`, 6.31 µM [falling, partial curve, poor fit].

Regarding `Cc1ccc(C(=O)CCc2ccc(N)cc2)cc1`, the half-maximal activity concentration (AC50) under setting [1] was 17.8 µM [rising, single point]. Same read-out and setting: with `CN(C)Cc1cc(CN(C)C)c(O)c(CCc2ccccc2)n1` the figure was 29.1 µM [falling, single point]; with `COC(=O)c1sccc1NC(=O)CNC(=O)c1ccccc1`, 12.6 µM [falling, partial curve]; with `N#Cc1c(NC(=O)CSc2nc(N)cc(=O)[nH]2)sc2c1CCCC2`, 8.91 µM [rising, partial curve, poor fit]. Take `CC(Cc1cccs1)NC(=O)Nc1ccc(Cl)c(Cl)c1` (stereo unspecified): the AC50 under setting [1] is 9.2 µM [falling, single point].

On to `COCCOC(=O)c1c(NC(=O)CN2CCOCC2)sc(C(N)=O)c1C`, for which the AC50 under setting [1] is 3.66 µM [falling, single point]. For the compound `COc1cccc(C(=O)NC2CCCc3c2cnn3-c2ccc(C)c(C)c2)c1OC` (stereo unspecified), under setting [1], the AC50 is 1.12 µM [falling, partial curve, poor fit]. On the same count and under the same terms, as for `CC(C)=CCC/C(C)=C/C=N/NC(=O)c1cccc([N+](=O)[O-])c1`, the figure is 7.31 µM [rising, partial curve, poor fit]. The same measure, in the same setting: with `COc1ccccc1NCC(=O)N1CCN(S(=O)(=O)c2ccccc2)CC1` the figure was 20.6 µM [falling, partial curve]. `Cc1cccc(NC(=O)CCc2ccc(S(=O)(=O)NC3CCCCC3)cc2)c1`: the AC50 under setting [1] was 2.31 µM [falling, full curve].

Take `O=C(c1ccco1)N1CCN(c2nc3ccccc3n3nnnc23)CC1`: the AC50 under setting [1] was 1.84 µM [falling, full curve, poor fit]. On to `CCOC(=O)c1c(N2C(=O)CC(Sc3ccccc3C(=O)O)C2=O)sc(C)c1C` (stereo unspecified), for which the AC50 is, setting by setting: under setting [1], 20 µM [falling, single point]; under setting [2], 12.6 µM [rising, partial curve, poor fit]. With `Clc1ccc(-c2nnc(-c3ccccc3)o2)cn1`, the AC50 under setting [1] was 1.58 µM [rising, full curve, poor fit]. Regarding `O=P(Cc1ccccc1)(c1ccccc1)c1ccccc1`, the AC50 under setting [1] is 6.51 µM [falling, single point]. The same measure, in the same setting: with `O=C(Nc1nnc(-c2ccccc2Cl)s1)c1ccccc1F` the figure was 5.01 µM [falling, partial curve, poor fit]; with `COc1ccccc1/C=N/Nc1nccnc1Cl`, 18.4 µM [falling, single point]; with `Cc1ccc(S(=O)(=O)CCSc2nccn2C)cc1`, 20 µM [rising, single point]. Same read-out and setting: as for `Cc1ccc2c(c1)sc1nc(=O)n(-c3ccc(Cl)cc3)c(=O)n12`, the figure is 35.5 µM [rising, single point]; as for `Cc1[nH]n(-c2ccccc2)c(=O)c1C1(C(F)(F)F)C(=O)N(c2ccc(F)cc2)C2=C1C(=O)CC(C)(C)C2` (stereo unspecified), 11.6 µM [falling, partial curve, poor fit]. Same read-out and setting: as for `O=C(NNC1=NC2(CCCC2)Cc2ccccc21)c1cccnc1`, the figure is 35.5 µM [rising, single point]. As for `CCOc1ccc(-c2csc(NC(=O)c3cccc(N4C(=O)CCC4=O)c3)n2)cc1`, under setting [1], the AC50 is 35.5 µM [rising, single point].

For `CN(C(=O)c1ccccc1OCc1ccc(Cl)cc1)c1ccccc1`, the AC50 under setting [1] was 5.62 µM [rising, single point]. The same measure, in the same setting: as for `O=C(NCc1cccs1)C1CCC(CNS(=O)(=O)c2cccc3nsnc23)CC1` (stereo unspecified), the figure is 29.1 µM [rising, single point].

On to `CCc1cc(=O)[nH]c(SCC(=O)N2CCOCC2)n1`, for which, under setting [1], the AC50 is 0.517 µM [rising, partial curve, poor fit]. On to `CCc1nnc(NC(=O)CSc2nc(C3CCCCC3)nc3ccccc23)s1`, for which the AC50 under setting [1] is 0.794 µM [falling, full curve].

On to `O=C(CN1C(=O)c2ccccc2C1=O)NC1CCC(O)CC1` (stereo unspecified), for which the AC50 under setting [1] was 29.1 µM [rising, single point]. On the same count and under the same terms, as for `CCOc1ccccc1NC(=O)CCc1nnc2ccc(N3CCC(C)CC3)nn12`, the figure is 35.5 µM [falling, single point]; as for `N=c1n(CCO)c2ccccc2n1Cc1ccccc1Cl`, 29.1 µM [falling, single point]. Consider `COc1ccc(CCC(=O)Nc2c(C)n(C)n(-c3ccccc3)c2=O)cc1`, for which, under setting [1], the AC50 is 22.4 µM [rising, partial curve, poor fit].

As for `COc1ccc2c(c1)-c1nc(NC(=O)c3ccco3)sc1CC2`, the concentration at half-maximal activity (AC50) under setting [1] is 0.82 µM [rising, full curve, poor fit]. The same measure, in the same setting: as for `CCC1=NC(c2ccccc2OC)N(O)C1(C)C` (stereo unspecified), the figure is 12.6 µM [rising, partial curve, poor fit]; as for `COc1cc(NC(=O)c2ccc(Cl)cc2)c(OC)cc1NC(=O)CN1CCOCC1`, 35.5 µM [rising, single point]; as for `O=C(NC1CC1)C1=C[C@H](C2CCCCC2)C[C@H](OCCCCO)O1`, 3.98 µM [rising, full curve, poor fit]. Still for that read-out and setting: as for `CCOC(=O)C1=CN(Cc2ccco2)S(=O)(=O)N(C)C1CC` (stereo unspecified), the figure is 0.651 µM [rising, partial curve, poor fit].

As for `CCc1nnc(NC(=O)Cn2nc(-c3ccc(OC)c(OC)c3)ccc2=O)s1`, the AC50 under setting [1] was 0.731 µM [rising, partial curve, poor fit].

For `COc1ccc(-c2cc(C(F)(F)F)c(C#N)c(SCC(=O)Nc3ccc(C)cc3)n2)cc1`, the AC50 under setting [1] was 0.092 µM [falling, full curve, poor fit]. Same read-out and setting: with `O=C(Nc1ccc(F)cc1)N(Cc1cccs1)Cc1cc2cc3c(cc2[nH]c1=O)OCO3` the figure was 6.51 µM [falling, partial curve, poor fit]; with `O=C(Nc1nnc(-c2cccs2)o1)c1ccco1`, 6.51 µM [falling, partial curve, poor fit]. Still for that read-out and setting: with `CN(C(=O)COC(=O)c1ccccc1Nc1ccccc1)C1CCS(=O)(=O)C1` (stereo unspecified) the figure was 15.8 µM [falling, partial curve, poor fit].

In the case of `O=C1C(Cl)=C(N2CCCCCC2)C(=O)N1c1ccc(Cl)cc1`, the AC50 under setting [1] was 22.4 µM [falling, single point]. The same measure, in the same setting: as for `COc1cccc(/C=C/C(=O)Nc2cccc(C(C)=O)c2)c1OC`, the figure is 11.2 µM [falling, partial curve, poor fit].

Consider `CCOC(=O)c1[nH]c(COC(=O)c2ccccc2NC(=O)c2ccco2)c(C(=O)OCC)c1C`, for which, under setting [1], the AC50 was 25.1 µM [falling, single point].

As to `COc1ccc2[nH]cc(CCNC(=O)CC[C@H]3O[C@@H](n4cc(C)c(=O)[nH]c4=O)C[C@@H]3O)c2c1`, under setting [1], the AC50 was 16.4 µM [rising, partial curve, poor fit]. With `CCc1ccc(NC(=O)C(C)OC(=O)/C=C/c2ccc(O)c(OC)c2)cc1` (stereo unspecified), under setting [2], the AC50 was 18.4 µM [falling, partial curve]. Turning to `Fc1ccccc1-c1nc(-c2ccc(Br)o2)no1`, the AC50 under setting [1] is 2 µM [rising, partial curve, poor fit]. The same measure, in the same setting: as for `COc1cc(C[C@H](C)[C@H](C)Cc2ccc3c(c2)OCO3)ccc1O`, the figure is 10 µM [rising, single point]; as for `O=C(NCCSc1c[nH]c2ccccc12)c1ccc2c(c1)OCO2`, 20 µM [falling, partial curve, poor fit].

Turning to `CCOCCCNC(=S)N1C2CCC1CC(NC(=O)NC13CC4CC(CC(C4)C1)C3)C2` (stereo unspecified), under setting [1], the AC50 is 16.4 µM [falling, partial curve, poor fit].
